Test results from the supplement of paper PMC4604168 (melanoma cell lines).
The other results are listed elsewhere or left out. Single values are uncertain, as repeats are few or missing.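 The apoptosis fraction was the count of cleaved-PARP antibody-stained nuclei relative to all DNA-stained nuclei, imaged in 1,536-well plates. Screening doses were set so most cells survived, and baseline and induced cleaved-PARP levels vary greatly across cell lines.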

The compounds below were run on A375 (assay: cleaved PARP positive nuclei fraction relative to DMSO control; melanoma cells; higher = more apoptosis). Conditions: library dose: low library concentration; 72 h.

| SMILES | cleaved PARP positive nuclei fraction |
| --- | --- |
| Cn1cc(C2=C(c3cn(C4CCN(Cc5ccccn5)CC4)c4ccccc34)C(=O)NC2=O)c2ccccc21 [Enzastaurin] + O=C(O)[C@@H]1[O][Sb](=[O])([O][Sb]2(=[O])[O][C@H]([C@H](O)CO)[C@H](O)[C@H](C(=O)O)[O]2)[O][C@H]([C@H](O)CO)[C@@H]1O [stibogluconate] (first compound 0.8 µM, partner dose 2 µM) | 90.4% |
| C[C@]12O[C@H](C[C@]1(O)CO)n1c3ccccc3c3c4c(c5c6ccccc6n2c5c31)CNC4=O [Lestaurtinib] + CNC(=O)c1cc(Oc2ccc(NC(=O)Nc3ccc(Cl)c(C(F)(F)F)c3)cc2)ccn1 [sorafenib] (first compound 0.004 µM, partner dose 0.4 µM) | 77.5% |
| CC1(C)CCC(c2ccc(Cl)cc2)=C(CN2CCN(c3ccc(C(=O)NS(=O)(=O)c4ccc(N[C@H](CCN5CCOCC5)CSc5ccccc5)c(S(=O)(=O)C(F)(F)F)c4)cc3)CC2)C1 + Cn1cc(C2=C(c3cn(C4CCN(Cc5ccccn5)CC4)c4ccccc34)C(=O)NC2=O)c2ccccc21 [Enzastaurin] (first compound 0.4 µM, partner dose 0.8 µM) | 380% |
| Cn1cc(C2=C(c3cn(C4CCN(Cc5ccccn5)CC4)c4ccccc34)C(=O)NC2=O)c2ccccc21 [Enzastaurin] + O=C(O)c1ccc2c(c1)nc(Nc1cccc(Cl)c1)c1ccncc12 [CX4945] (first compound 0.8 µM, partner dose 0.4 µM) | 119% |
| N.N.[Cl][Pt][Cl] [cisplatin] + CNC(=O)c1cc(Oc2ccc(NC(=O)Nc3ccc(Cl)c(C(F)(F)F)c3)cc2)ccn1 [sorafenib] (first compound 1.6 µM, partner dose 0.4 µM) | 143% |
| N.N.[Cl][Pt][Cl] [cisplatin] + CS(=O)(=O)CCNCc1ccc(-c2ccc3ncnc(Nc4ccc(OCc5cccc(F)c5)c(Cl)c4)c3c2)o1 [lapatinib] (first compound 1.6 µM, partner dose 0.8 µM) | 33% |
| C[C@]12O[C@H](C[C@]1(O)CO)n1c3ccccc3c3c4c(c5c6ccccc6n2c5c31)CNC4=O [Lestaurtinib] + Cc1cc(Nc2cc(N3CCN(C)CC3)nc(/C=C/c3ccccc3)n2)n[nH]1 [ENMD2076] (first compound 0.004 µM, partner dose 0.04 µM) | 89.8% |
| C[As](C)SC[C@H](NC(=O)CC[C@H](N)C(=O)O)C(=O)NCC(=O)O [Darinaparsin] + Cn1nnc2c(C(N)=O)ncn2c1=O [temozolomide] (first compound 0.4 µM, partner dose 2 µM) | 115% |
| CCCCCCCCCCCCCCCCCCOP(=O)([O-])OC1CC[N+](C)(C)CC1 [Perifosine] + Cn1cc(C2=C(c3cn(C4CCN(Cc5ccccn5)CC4)c4ccccc34)C(=O)NC2=O)c2ccccc21 [Enzastaurin] (first compound 0.4 µM, partner dose 0.8 µM) | 54.7% |
| C=CCNC1=C2C[C@@H](C)C[C@H](OC)[C@H](O)[C@@H](C)/C=C(\C)[C@H](OC(N)=O)[C@@H](OC)/C=C\C=C(/C)C(=O)NC(=CC1=O)C2=O [Tanespimycin] + C[As](C)SC[C@H](NC(=O)CC[C@H](N)C(=O)O)C(=O)NCC(=O)O [Darinaparsin] (first compound 0.002 µM, partner dose 0.4 µM) | 79.9% |
| Cn1sc(=O)n(Cc2ccccc2)c1=O + C[As](C)SC[C@H](NC(=O)CC[C@H](N)C(=O)O)C(=O)NCC(=O)O [Darinaparsin] (first compound 0.4 µM, partner dose 0.4 µM) | 102% |
| CC1(C)CCC(c2ccc(Cl)cc2)=C(CN2CCN(c3ccc(C(=O)NS(=O)(=O)c4ccc(N[C@H](CCN5CCOCC5)CSc5ccccc5)c(S(=O)(=O)C(F)(F)F)c4)cc3)CC2)C1 + C[As](C)SC[C@H](NC(=O)CC[C@H](N)C(=O)O)C(=O)NCC(=O)O [Darinaparsin] (first compound 0.4 µM, partner dose 0.4 µM) | 397% |
| Cc1cc(Nc2cc(N3CCN(C)CC3)nc(Sc3ccc(NC(=O)C4CC4)cc3)n2)n[nH]1 [Tozasertib] + C[As](C)SC[C@H](NC(=O)CC[C@H](N)C(=O)O)C(=O)NCC(=O)O [Darinaparsin] (first compound 0.006 µM, partner dose 0.4 µM) | 99.3% |
| CS(=O)(=O)c1ccc(C(=O)Nc2ccc(Cl)c(-c3ccccn3)c2)c(Cl)c1 [vismodegib] + N.N.[Cl][Pt][Cl] [cisplatin] (first compound 1 µM, partner dose 1.6 µM) | 216% |
| Cc1cc(Nc2cc(N3CCN(C)CC3)nc(/C=C/c3ccccc3)n2)n[nH]1 + C[As](C)SC[C@H](NC(=O)CC[C@H](N)C(=O)O)C(=O)NCC(=O)O [Darinaparsin] (first compound 0.04 µM, partner dose 0.4 µM) | 172% |
| O=C(Nc1cc(C(F)(F)F)cc(C(F)(F)F)c1)c1cc(Cl)ccc1O + C[As](C)SC[C@H](NC(=O)CC[C@H](N)C(=O)O)C(=O)NCC(=O)O [Darinaparsin] (first compound 0.016 µM, partner dose 0.4 µM) | 19% |
| Cc1cn(-c2cc(NC(=O)c3ccc(C)c(Nc4nccc(-c5cccnc5)n4)c3)cc(C(F)(F)F)c2)cn1 [nilotinib] + C[C@]12O[C@H](C[C@]1(O)CO)n1c3ccccc3c3c4c(c5c6ccccc6n2c5c31)CNC4=O [Lestaurtinib] (first compound 0.2 µM, partner dose 0.004 µM) | 233% |
| C[As](C)SC[C@H](NC(=O)CC[C@H](N)C(=O)O)C(=O)NCC(=O)O [Darinaparsin] + Cn1c(Nc2ccc(C(F)(F)F)cc2)nc2cc(Oc3ccnc(-c4ncc(C(F)(F)F)[nH]4)c3)ccc21 [CHIR265] (first compound 0.4 µM, partner dose 0.08 µM) | 107% |
| Cn1cc(C2=C(c3cn(C4CCN(Cc5ccccn5)CC4)c4ccccc34)C(=O)NC2=O)c2ccccc21 [Enzastaurin] + CN(c1ncccc1CNc1nc(Nc2ccc3c(c2)CC(=O)N3)ncc1C(F)(F)F)S(C)(=O)=O [PF562271] (first compound 0.8 µM, partner dose 0.08 µM) | 150% |
| C[C@]12O[C@H](C[C@]1(O)CO)n1c3ccccc3c3c4c(c5c6ccccc6n2c5c31)CNC4=O [Lestaurtinib] + O=C(O)c1ccc2c(c1)nc(Nc1cccc(Cl)c1)c1ccncc12 [CX4945] (first compound 0.004 µM, partner dose 0.4 µM) | 51.3% |
| CC(=O)c1c(C)c2cnc(Nc3ccc(N4CCNCC4)cn3)nc2n(C2CCCC2)c1=O [palbociclib] + C[As](C)SC[C@H](NC(=O)CC[C@H](N)C(=O)O)C(=O)NCC(=O)O [Darinaparsin] (first compound 0.04 µM, partner dose 0.4 µM) | 257% |
| NC1(c2ccc(-c3nc4ccn5c(=O)[nH]nc5c4cc3-c3ccccc3)cc2)CCC1 + N.N.[Cl][Pt][Cl] [cisplatin] (first compound 0.4 µM, partner dose 1.6 µM) | 149% |
| Cc1cc(Nc2cc(N3CCN(C)CC3)nc(Sc3ccc(NC(=O)C4CC4)cc3)n2)n[nH]1 [Tozasertib] + Cn1cc(C2=C(c3cn(C4CCN(Cc5ccccn5)CC4)c4ccccc34)C(=O)NC2=O)c2ccccc21 [Enzastaurin] (first compound 0.006 µM, partner dose 0.8 µM) | 116% |
| CC(C)C[C@H](NC(=O)[C@H](Cc1ccccc1)NC(=O)c1cnccn1)B(O)O [Bortezomib] + N.N.[Cl][Pt][Cl] [cisplatin] (first compound 0.001 µM, partner dose 1.6 µM) | 24.3% |
| Nc1nc(F)nc2c1ncn2[C@@H]1O[C@H](CO)[C@@H](O)[C@@H]1O [fludarabine] + C[As](C)SC[C@H](NC(=O)CC[C@H](N)C(=O)O)C(=O)NCC(=O)O [Darinaparsin] (first compound 0.2 µM, partner dose 0.4 µM) | 2270% |
| Cn1cc(C2=C(c3cn(C4CCN(Cc5ccccn5)CC4)c4ccccc34)C(=O)NC2=O)c2ccccc21 [Enzastaurin] + CCN(CC)CCNC(=O)c1c(C)[nH]c(/C=C2\C(=O)Nc3ccc(F)cc32)c1C [sunitinib] (first compound 0.8 µM, partner dose 0.4 µM) | 49.5% |
| C[C@]12O[C@H](C[C@]1(O)CO)n1c3ccccc3c3c4c(c5c6ccccc6n2c5c31)CNC4=O [Lestaurtinib] + Nc1cccc2c1CN(C1CCC(=O)NC1=O)C2=O [lenalidomide] (first compound 0.004 µM, partner dose 1 µM) | 95.7% |
| N.N.[Cl][Pt][Cl] [cisplatin] + Cn1nnc2c(C(N)=O)ncn2c1=O [temozolomide] (first compound 1.6 µM, partner dose 2 µM) | 59.9% |
| Cn1cc(C2=C(c3cn(C4CCN(Cc5ccccn5)CC4)c4ccccc34)C(=O)NC2=O)c2ccccc21 [Enzastaurin] + CNC(=O)c1cc(Oc2ccc(NC(=O)Nc3ccc(Cl)c(C(F)(F)F)c3)cc2)ccn1 [sorafenib] (first compound 0.8 µM, partner dose 0.4 µM) | 72.7% |
